Source: paper PMC7819943, “Rice protein-binding microarrays: a tool to detect cis-acting elements near promoter regions in rice”
Some of the results follow.

Chains of the proteins cited; added tags and fusions are not shown.
UniProt Q0JBA9, entry or part of it: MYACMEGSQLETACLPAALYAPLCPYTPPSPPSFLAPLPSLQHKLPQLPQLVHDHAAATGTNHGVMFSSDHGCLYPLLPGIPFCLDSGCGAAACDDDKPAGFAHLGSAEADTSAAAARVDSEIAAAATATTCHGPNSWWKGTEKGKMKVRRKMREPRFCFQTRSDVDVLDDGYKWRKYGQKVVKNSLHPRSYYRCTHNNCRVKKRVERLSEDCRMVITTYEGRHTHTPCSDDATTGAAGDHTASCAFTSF

The sequences below were run against OsWRKY34 (Oryza sativa, UniProt Q0JBA9 1-250) (assay: protein-binding microarray (RPBM); PBS, 2% BSA, 51.3 ng/ul salmon testes DNA, 50 uM zinc acetate, 200 nM TF, 25 C, 1 h; high values mean tight binding). Settings: protein: recombinant; tags: N-terminal polyhistidine and DsRed monomer fusion (pET32a); label: CyDye5-dUTP incorporated in the synthesized complementary strand; 3' TTTTT single-stranded linker to array surface; dsDNA, one strand shown.
Summary of the method: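 Ni–NTA purification followed expression in E. coli BL21-CodonPlus of transcription factors fused N-terminally to a polyhistidine tag and DsRed. At 200 nM in PBS with 2% BSA, salmon testes DNA and 50 µM zinc acetate, the protein was incubated for 1 h at 25 °C with a custom Agilent array that had been primer-extended with Cy5-dUTP and blocked with 2% BSA. After washing, the array was read on an Axon 4000B scanner. The binding signal is per-feature fluorescence intensity in arbitrary units.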
For “ATCCTTAATTAGTACGGAGTATGTTCTTATTATTCTAATTCGGAGTCACCTAGTGCAG”, the binding signal was 8040 fluorescence intensity (a.u.). For “ATAACCGTGAGGATAAATTCACCGCTTCGATCTCTCCCATCGGAGTCACCTAGTGCAG”, the binding signal was 8510 fluorescence intensity (a.u.). In the case of “GTTGAGTGTTGAGCTCGGTCGTCCTGTTCTTGACTTCTCGCGGAGTCACCTAGTGCAG”, the binding signal was 10600 fluorescence intensity (a.u.). In the case of “GCTCCTCTCTCTCTCACCTTCTTGTTGGCCCCACGTGTCACGGAGTCACCTAGTGCAG”, the binding signal was 8390 fluorescence intensity (a.u.). “AGTTGTATCTACCCTCTAATCTTGCGAAGAATAGTCTACACGGAGTCACCTAGTGCAG” was tested, and the binding signal was 8180 fluorescence intensity (a.u.). In the case of “GGACCCAACGTTGTGTTTTGCTCGTTTGATGATCTTCTATCGGAGTCACCTAGTGCAG”, the binding signal was 8430 fluorescence intensity (a.u.). In the case of “TGGAGCACATCTTTTCGTATTTTCATGGATGTCGCATCTACGGAGTCACCTAGTGCAG”, the binding signal was 8930 fluorescence intensity (a.u.). “GACGAATGGTCAAACGTTGGATAAAAAGTCAACAGCGTCACGGAGTCACCTAGTGCAG” was tested, and the binding signal was 10200 fluorescence intensity (a.u.). “TAAGGTGTGTTTAGTTCTTTGGGTGTAAAGTTTTTGAAGTCGGAGTCACCTAGTGCAG” was tested, and the binding signal was 10600 fluorescence intensity (a.u.). “CCATTAGGGTCCAGCTTATTGACCGTTTCGCACCATACACCGGAGTCACCTAGTGCAG” was tested, and the binding signal was 11100 fluorescence intensity (a.u.). In the case of “TCGGCGATCCTTCGATATCACTAATCTAGCATTCCACCAACGGAGTCACCTAGTGCAG”, the binding signal was 8170 fluorescence intensity (a.u.). “TCTCTTGGTTTCTCTCTCTAGCCATCGGCTGCCTCTCTCTCGGAGTCACCTAGTGCAG” was tested, and the binding signal was 8330 fluorescence intensity (a.u.). In the case of “TGGGCAGGGGCACTCGCGCCGTCGGTTGGGGAAGAGAGGGCGGAGTCACCTAGTGCAG”, the binding signal was 9260 fluorescence intensity (a.u.). In the case of “TTCCCCACCTCTACGCGCCTCCGCCTCCGCCTCCGCCATGCGGAGTCACCTAGTGCAG”, the binding signal was 10300 fluorescence intensity (a.u.). With “CACATAAGCTAGCTTTGCAGCCACAGTCATCTCCATCGGACGGAGTCACCTAGTGCAG” the binding signal was 8070 fluorescence intensity (a.u.). For “ACCGTCCCACCTCAAGGCCGGCACCCTGTCACTCCACCTCCGGAGTCACCTAGTGCAG”, the binding signal was 9050 fluorescence intensity (a.u.). “TCACATCACATGATAGTCATACTGTTTGCCCCAATAGACACGGAGTCACCTAGTGCAG” was tested, and the binding signal was 9080 fluorescence intensity (a.u.). For “AAAAATTATTTTTCTCACATTATGCAGTCGTTTCATTTCTCGGAGTCACCTAGTGCAG”, the binding signal was 9210 fluorescence intensity (a.u.). With “ATAGTTAGGCAAGTTTGACTTTTGGTGTAAATGTTTGGTTCGGAGTCACCTAGTGCAG” the binding signal was 12700 fluorescence intensity (a.u.). With “GAGGGTTATTACTTAGCACCGTTGACTACTACTTTAATCTCGGAGTCACCTAGTGCAG” the binding signal was 10000 fluorescence intensity (a.u.). In the case of “GCAACTCTTATATCTATTTCTGTTATTACAATGGAATTCCCGGAGTCACCTAGTGCAG”, the binding signal was 9300 fluorescence intensity (a.u.). With “CCGCCACATGCTGCTGCCGCCCCAGCCGTCGGCTGCTTCTCGGAGTCACCTAGTGCAG” the binding signal was 8560 fluorescence intensity (a.u.). For “GCACGTGACGACCAGCTCCCTTCGATCACCTTGCTCCCAACGGAGTCACCTAGTGCAG”, the binding signal was 8180 fluorescence intensity (a.u.). For “ACCACCTTAAAATGGCCCACACTACTTCCGTGTAAATTCACGGAGTCACCTAGTGCAG”, the binding signal was 8900 fluorescence intensity (a.u.). “CTCCATCGATCGCGTCCTCCTTACATTACTCCGCCCGCTGCGGAGTCACCTAGTGCAG” was tested, and the binding signal was 14200 fluorescence intensity (a.u.). For “CCGCTGCTCTTATTTCTTCTTTCTTATCTTCTTAAAATATCGGAGTCACCTAGTGCAG”, the binding signal was 9520 fluorescence intensity (a.u.). “GCAGTTTCATAATGTTCGTTGCCAACGATCCGAGGTTGTACGGAGTCACCTAGTGCAG” was tested, and the binding signal was 8440 fluorescence intensity (a.u.). “CACTCGCCGGCACGTCGCCATCCAGATCGCACGCATTGACCGGAGTCACCTAGTGCAG” was tested, and the binding signal was 9300 fluorescence intensity (a.u.). In the case of “AGGAAAACCAAACCTGCACCACACACGCCGCGGCTCTCGTCGGAGTCACCTAGTGCAG”, the binding signal was 11500 fluorescence intensity (a.u.). For “CCGCCGTTGACTTTTTGTCTAACGTTTGACCATTCGTCTTCGGAGTCACCTAGTGCAG”, the binding signal was 36200 fluorescence intensity (a.u.). For “TCTTATCTGCATCCAACTGTACTCCAGCATGATCCACAACCGGAGTCACCTAGTGCAG”, the binding signal was 9300 fluorescence intensity (a.u.). In the case of “GTGGTGGCGGTGGTGGTGGCGCCATGGACAAACGGACGGACGGAGTCACCTAGTGCAG”, the binding signal was 8400 fluorescence intensity (a.u.). In the case of “AGCTTCCCTCCTAGTTTCCTTGCACCATCGGCTTTGCCTCCGGAGTCACCTAGTGCAG”, the binding signal was 8360 fluorescence intensity (a.u.). With “CAAAACAGAAGAGCCAGGTTAGTTTAGTTGGTCATATTCACGGAGTCACCTAGTGCAG” the binding signal was 8310 fluorescence intensity (a.u.). With “CGCCGCTTAGCCCCGCTCGCCGCCGTCCGTTGCTACTCCGCGGAGTCACCTAGTGCAG” the binding signal was 10600 fluorescence intensity (a.u.). With “TTCCTTTGTTTAGTTGTTTGTTTTACATTCCACTCTACTACGGAGTCACCTAGTGCAG” the binding signal was 9220 fluorescence intensity (a.u.). With “AGTTCAACTTTAACCGTTTGTCTTATTTATTTTTTTTGAACGGAGTCACCTAGTGCAG” the binding signal was 9090 fluorescence intensity (a.u.). With “CGCCCAATTCCCCACTCCGATTCCTCTTCTTTCGCCCAAACGGAGTCACCTAGTGCAG” the binding signal was 10400 fluorescence intensity (a.u.). “TCGCCGCCGCAACGCCTTCCAAAATCAAACCCTAGCCTAGCGGAGTCACCTAGTGCAG” was tested, and the binding signal was 8570 fluorescence intensity (a.u.). With “AAGTCAAACATTTGGCGCCAAATTGAAAATCCCTTTCTACCGGAGTCACCTAGTGCAG” the binding signal was 8080 fluorescence intensity (a.u.). With “TGCTACTTCGCTTGCAGCGTGCGTGTCGGCTAGACCGTCCCGGAGTCACCTAGTGCAG” the binding signal was 8060 fluorescence intensity (a.u.). For “GAGGGCAAGGGCGGCGGGTCTAACACAACACAATAAGAGTCGGAGTCACCTAGTGCAG”, the binding signal was 9470 fluorescence intensity (a.u.). For “CACGCCACTTCTCAAAACTTGCATGCATGCTACTGTGCCTCGGAGTCACCTAGTGCAG”, the binding signal was 8050 fluorescence intensity (a.u.). In the case of “GCCAGCCGGATCAGATCCAACACCTACCAACCTACCTTGGCGGAGTCACCTAGTGCAG”, the binding signal was 9840 fluorescence intensity (a.u.). “AGCACCACCACCACCACCACCACCGCCATAGCTAGCCGCTCGGAGTCACCTAGTGCAG” was tested, and the binding signal was 10700 fluorescence intensity (a.u.). With “AAGGTTGTGGTTAGTGTTTCTTGATTACTGAAAATGGATACGGAGTCACCTAGTGCAG” the binding signal was 10600 fluorescence intensity (a.u.). For “TCCCATTTCTCTCGCGACAATTAGCGCTGCAACCTCTGAACGGAGTCACCTAGTGCAG”, the binding signal was 9560 fluorescence intensity (a.u.). For “GTCATGCATAACGTATTACCTTTTCTCTTCCTTTTCCCTACGGAGTCACCTAGTGCAG”, the binding signal was 9250 fluorescence intensity (a.u.). In the case of “GTATTTTCGGTCAAACAATCCACGCTCCACTCAAATCAACCGGAGTCACCTAGTGCAG”, the binding signal was 8510 fluorescence intensity (a.u.). With “TCATGGGGATTGGGGAGGCCAGGTGGAAGGAAGATTCCGGCGGAGTCACCTAGTGCAG” the binding signal was 9350 fluorescence intensity (a.u.). For “CCCGCATTCACTGTAGCTAGACCAATTCTAGACTTTCCAGCGGAGTCACCTAGTGCAG”, the binding signal was 10300 fluorescence intensity (a.u.). In the case of “CACCCAAGCCAAGCCCACGACCCGCACCGCAACACGCACACGGAGTCACCTAGTGCAG”, the binding signal was 8520 fluorescence intensity (a.u.). In the case of “CATTTCAATGTTTGCCAATTGACTTTATTTTTCTTTTGGTCGGAGTCACCTAGTGCAG”, the binding signal was 9230 fluorescence intensity (a.u.). In the case of “GTCATCGCCCAGCGCCGCGGCGACTCCAGCAAATTCGCGACGGAGTCACCTAGTGCAG”, the binding signal was 8090 fluorescence intensity (a.u.).
